No constants are given. Whether binding was seen depends on the method and setting. Some results given as binding are weak or reduced against the parent protein; the word gives no strength.
T1: mouse ASGPR on the murine liver cell line Hepa1c1c7 (and on mouse liver in vivo) (mouse) (UniProt P34927)
T1 sequence (looked up): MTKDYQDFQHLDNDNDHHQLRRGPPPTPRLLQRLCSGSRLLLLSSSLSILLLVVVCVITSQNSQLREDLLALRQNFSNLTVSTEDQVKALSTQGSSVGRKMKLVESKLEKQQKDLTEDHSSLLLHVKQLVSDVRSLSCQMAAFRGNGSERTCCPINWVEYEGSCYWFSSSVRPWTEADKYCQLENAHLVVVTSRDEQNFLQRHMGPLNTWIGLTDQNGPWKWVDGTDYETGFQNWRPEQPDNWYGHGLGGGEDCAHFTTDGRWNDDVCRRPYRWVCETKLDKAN

T2: human ASGPR on the human liver cell line HepG2 (human) (UniProt P07306)
T2 sequence (looked up): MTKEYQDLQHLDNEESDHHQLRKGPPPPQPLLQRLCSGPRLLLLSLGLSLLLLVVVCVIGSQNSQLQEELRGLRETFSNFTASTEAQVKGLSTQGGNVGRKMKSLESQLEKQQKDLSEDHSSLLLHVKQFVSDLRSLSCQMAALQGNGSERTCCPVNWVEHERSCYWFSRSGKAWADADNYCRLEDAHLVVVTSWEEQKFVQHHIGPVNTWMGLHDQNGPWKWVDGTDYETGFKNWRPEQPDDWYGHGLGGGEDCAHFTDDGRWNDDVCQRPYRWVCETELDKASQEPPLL

B1: DOM26m-33 (protein, not shown: small tags and cut ends)
VH: EVQLLESGGGLVQPGGSLRLSCAASGFTFAKYDMIWVRQAPGKGLEWVSGINHSGSRTYYADSVKGRFTISRDNSKNMLYLQMNSLRAEDTAVYYCAKSGSSFDYWGQGTLVTVSS
B2: DOM26m-52 (protein, not shown: small tags and cut ends)
VH: EVQLLESGGGLVQPGGSLRLSCAASGFTFREHPMSWVRQAPGKGLEWVSSISKHGSETYYADSVKGRFTISRDNSKNTLYLQMNSLRAEDTAVYYCVKSVREFDYWGQGTLVTVSS
B3: DOM26m-7 (other, not shown: small tags and cut ends)
VH: EVQLLESGGGLVQPGGSLRLSCAASGFTFDDYEMGWVRQAPGKGLEWVSLISAQGRVTYYADSVKGRFTISRDNSKNTLYLQMNSLRAEDTAVYYCAKNSPSYLLNFDYWGQGTLVTVSS
notes: human VH domain antibody (dAb) selected on mouse ASGPR H1
B4: DOM26m-20 (other, not shown: small tags and cut ends)
VL: DIQMTQSPSSLSASVGDRVTITCRASKYIGSDLYWYQQKPGKAPKLLIGGGSRLQSGVSSRFSGSGSGTDFTLTISSLQPEDFATYYCGQKWARPLTFGQGTKVEIKR
notes: human Vκ domain antibody (dAb) selected on mouse ASGPR H1; also called Vκ dAb DOM26m-20
B5: DOM26m-29 (other, not shown: small tags and cut ends)
VH: EVQLLESGGGLVQPGGSLRLSCAASGFTFEDSGMIWARQAPGKGLEWVSGIASEGSTTYYADSVKGRFTISRDNSKNTLYLQMNSLRAEDTAVYYCAKSGLSFDYWGQGTLVTVSS
notes: as for B3
B6: DOM26m-50 (other, not shown: small tags and cut ends)
VL: DIQMTQSPSSLSASVGDRVTITCRASISIYEHLNWYQQKPGKAPTLLIWDSSGLQSGVPSRFSGSGSGTDFTLTISSLQPEDFATYYCVQHHSHPPTFGQGTKVEIKR
notes: human Vκ domain antibody (dAb) selected on mouse ASGPR H1
B7: DOM26m-54 (other, not shown: small tags and cut ends)
VL: DIQMTQSPSSLSASVGDRVTITCRASLNIDTDLVWYQQKPGKAPKLLIAGWSGLQSGVPSRFSGSGSGTDFTLTISSLQPEDFATYYCGQFAREPFTFGQGTKVEIKR
notes: as for B6
B8: DOM26m-58 (other, not shown: small tags and cut ends)
VL: DIQMTQSPSSLSASVGDRVTITCRASQPIRNALTWYQQKPGKAPKLLIYRTSHLQSGVPSRFSGSGSGTDFTLTISSLQPEDFATYYCQQTWTMPLTFGQGTKVEIKR
notes: as for B6
B9: DOM26h-110 (protein, not shown: small tags and cut ends)
VH: EVQLLESGGGLVQPGGSLRLSCAASGFTFSANGMHWVRQAPGKGLEWVSVISATGDQTYYADSVKGRFTISRDNSKNTLYLQMNSLRAEDTAVYYCAKGYDRRHRKFDYWGQGTLVTVSS
B10: DOM26h-99 (protein, not shown: small tags and cut ends)
VH: EVQLLESGGGLVQPGGSLRLSCAASGFTFKPYAMHWVRQAPGKGLEWVSSISSTGLSTYYADSVKGRFTISRDNSKNTLYLQMNSLRAEDTAVYYCAKDASRFRQPFDYWGQGTLVTVSS
B11: DOM26h-165 (protein, not shown: small tags and cut ends)
VL: DIQMTQSPSSLSASVGDRVTITCRASVKIGERLWWYQQKPGEAPKLLIRDASLLQSGVPSRFSGSGSGTDFTLTISSLQPEDFATYYCGQSWMRPYTFGQGTKVEIKR
B12: DOM26h-34 (protein, not shown: small tags and cut ends)
VL: DIQMTQSPSSLSASVGDRVTITCQASKNIGERLVWYQQKPGKAPKLLIGFASLLQSGVPSRFSGSGSGTDFTLTISSLQPEDFATYYCGQYRWVPATFGQGTKVEIKR
B13: DOM26h-61 (other, not shown: small tags and cut ends)
VH: EVQLLESGGGLVQPGGSLRLSCAASGFTFSTYPMHWARQAPGKGLEWVSSISPSGDSTYYADSVKGRFTISRDNSKNTLYLQMNSLRAEDTAVYYCAKNALRFDYWGQGTLVTVSS
notes: human VH domain antibody (dAb); also called VH dAb DOM26h-61
B14: DOM26h-164 (protein, not shown: small tags and cut ends)
VL: DIQMTQSPSSLSASVGDRVTITCRASSNIGRSLVWYQQKPGKAPKLLIAGGSLLQSGVPSRFSGSGSGTDFTLTISSLQPEDFATYYCGQYAEEPFTFGQGTRVEIKR
B15: DOM26h-167 (protein, not shown: small tags and cut ends)
VL: DIQMTQSPSSLSASVGDRVTITCRASSWINSDLVWYQQKPGEAPKLLIAGGSLLQSGVPSRFSGSGSGTDFTLTISSLQPEDFATYYCGQYLEEPYTFGQGTKVEVKR
B16: DOM26h-162 (protein, not shown: small tags and cut ends)
VL: DIQMTQSPSSLSASVGDRVTITCRASMSIDESLWWYQQKPGKAPKLLIRGGSGLQSGVPSRFSGSGSGTDFTLTISSLQPEDFATYYCGQAARRPYTFGQGTKVEIKR
B17: DOM26h-25 (protein, not shown: small tags and cut ends)
VL: DIQMTQSPSSLSASVGDRVTITCRASGDIGHALWWYQQKPGKAPKLLIRGGSALQSGVPSRFSGSGSGTDFTLTISSLQPEDFATYYCGQSHVRPFTFGQGTKVEIKR
B18: DOM26h-166 (protein, not shown: small tags and cut ends)
VL: DIQMTQSPSSLSASVGDRVTITCRASSYIGGELWWYQQKPGKAPKLLISGTSGLQSGVPSRFSGSGSGTDFTLTISSLQPEDFATYYCGQAAKRPFTFGQGTKVEIKR
B19: DOM26h-163 (protein, not shown: small tags and cut ends)
VL: DIQMTQSPSSLSASVGDRVTITCRASHYIGNELWWYQQKPGKAPKLLIRRGSGLQSGVPSRFSGSGSGTDFTLTISSLQPEDFATYYCGQARHRPYTFGQGTRVEIKR
B20: DOM26h-104 (protein, not shown: small tags and cut ends)
VH: EVQLLESGGGLVQPGGSLRLSCAASGFTFPKYGMAWVRQAPGKGLEWVSRIGATGSETYYADSVKGRFTISRDNSKNTLYLQMNSLRAEDTAVYYCAKHRGTAHSSFFDYWGQGTLVTVSS
B21: DOM26h-159 (protein, not shown: small tags and cut ends)
VH: EVQLLESGGGLVQPGGSLRLSCAASGFTFADYSMYWVRQAPGKGLEWVSDISPSGSMTYYADSVKGRFTISRDNSKNTLYLQMNSLRAEDTAVYYCAKGLPGQNMHVGFDYWGQGTLVTVSS
B22: DOM26h-161 (protein, not shown: small tags and cut ends)
VL: DIQMTQSPSSLSASVGDRVTITCRASQAIGRWLLWYQQKPGKAPKLLIYAASRLQSGVPSRFSGSGSGTDFTLTISSLQPEDFATYYCQQAYSLPPTFGQGTKVEIKR

Target: T1, mouse ASGPR on the murine liver cell line Hepa1c1c7 (and on mouse liver in vivo) (mouse)
Assay: immunofluorescence confocal microscopy, 5 µM FLAG-tagged dAb on Hepa1c1c7 cells, anti-FLAG M2 Cy3

binding, binds:
B1

Target: T1, mouse ASGPR on the murine liver cell line Hepa1c1c7 (and on mouse liver in vivo) (mouse)
Assay: flow cytometry cell binding assay, FLAG-tagged dAb cross-linked with anti-FLAG M2, Hepa1c1c7 cells (members in Table 3)

binding, binds:
B1
B2
B3
B4
B5
B6
B7
B8

Target: T2, human ASGPR on the human liver cell line HepG2 (human)
Assay: flow cytometry cell binding assay, FLAG-tagged dAb cross-linked with anti-FLAG M2, HepG2 cells (members in Table 2)

binding, binds:
B9
B10
B11
B12
B13
B14
B15
B16
B17
B18
B19
B20
B21
B22

Target: T1, mouse ASGPR on the murine liver cell line Hepa1c1c7 (and on mouse liver in vivo) (mouse)
Assay: immunofluorescence confocal microscopy, 5 µM FLAG-tagged dAb on Hepa1c1c7 cells, anti-FLAG M2-Cy3

binding, binds:
B1
